According to US20210299283A1 (SANFORD BURNHAM PREBYS MEDICAL DISCOVERY INSTITUTE, published 2021):
No constants are given. Whether binding was seen depends on the method and setting. Some binding calls cover weakened binding; strength is not graded here.

What was measured:
[1] = biological target: T1, Human CTGF recombinant protein (Affymetrix Cat #14-8503-80) (human) (UniProt P29279); assay: ELISA, non-labeled DAG (0.5 mM) competing with labelled DAG on recombinant human CTGF
T1 sequence (looked up): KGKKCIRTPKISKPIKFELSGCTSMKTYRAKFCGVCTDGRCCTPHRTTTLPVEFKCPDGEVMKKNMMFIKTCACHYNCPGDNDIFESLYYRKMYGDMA

[2] = biological target: T1, Human CTGF recombinant protein (Affymetrix Cat #14-8503-80) (human); assay: ELISA competition on recombinant human CTGF, as retold in the discussion
[3] = biological target: T1, Human CTGF recombinant protein (Affymetrix Cat #14-8503-80) (human); assay: ELISA, non-labeled DAG (0.5 mM) competing with FAM-DAG on recombinant human CTGF (FIG. 10)

Measured: binding

CDAGRKQKC (no label; synthesized on rink amide resin; described as a cyclic peptide) [non-labeled DAG peptide (…)]
binds: [1] | [2] | [3]
